The test relates to L1210 leukemia ip in BDF1 mice, survival T/C. The test can be described thus: NCI In Vivo Anticancer Drug Screen. Data for tumor model L1210 Leukemia (intraperitoneal) in B6D2F1 (BDF1) mice. The note with it: T/C endpoint: mean survival time, higher T/C = longer survival.
The mark [1] stands for this setting: dose: 100.0 mg/kg/injection, schedule: Q04DX003 (ip), vehicle: saline with Tween-80.
Setting [2] is: dose: 100.0 mg/kg/injection, schedule: Q04DX003 (ip), vehicle: Klucel (hydroxypropylcellulose) (HPC).
Setting [3] is: dose: 200.0 mg/kg/injection, schedule: Q04DX003 (ip), vehicle: Klucel (hydroxypropylcellulose) (HPC).
[4] abbreviates: dose: 400.0 mg/kg/injection, schedule: Q04DX003 (ip), vehicle: Klucel (hydroxypropylcellulose) (HPC).
Where [5] appears, read: dose: 400.0 mg/kg/injection, schedule: Q01DX009 (ip), vehicle: saline.
Where [6] appears, read: dose: 200.0 mg/kg/injection, schedule: Q01DX009 (ip), vehicle: Klucel (hydroxypropylcellulose) (HPC).
[7] abbreviates: dose: 400.0 mg/kg/injection, schedule: Q01DX009 (ip), vehicle: Klucel (hydroxypropylcellulose) (HPC).

The record followed here is PubChem BioAssay AID248 (DTP/NCI, 2004).

The list is a part of this screen's results and no random one: it is rich in T/C values a quarter to a half above the control, in often repeated tests (any T/C) and in doses without a T/C. Other doses and runs of a compound stand elsewhere. T/C gives the treated animals as a percentage of the vehicle group. Some doses have a count of surviving animals in place of a T/C: the source files T/C as zero there, which appears to mark a toxic dose or a test without result, not a measured value. Some doses without a T/C left all or most animals alive at the check, yet need not have been tolerated: survival well below the control is almost never listed, so the zero probably covers shortened survival too. Survivors were counted at the toxicity check, usually on the fifth day, unless a day is given; later deaths do not show. Schedules are NCI's codes, taken here to give the interval after Q, in days (D) or hours (H), and the number of doses after X. Where survival is the endpoint, this PubChem deposit counts one and a half times the control or more as active, and values a quarter to a half above the control carry no call in these data; other NCI protocols may use other cut-offs. Some doses were run more than once; their values stand side by side, smallest first. Some schedule codes hold Z or #, which are not explained here. Some T/C values carry the count of animals alive at the toxicity check (mostly the fifth day); where none is given, no animal had died by that day.

Take `CC[C@@]1(O)C[C@H](OC2CC(N(C)C)C(OC3CC(O)C(O[C@@H]4O[C@@H](C)C(=O)C=C4N)C(C)O3)C(C)O2)c2c(cc3c(c2O)C(=O)c2c(O)ccc(O)c2C3=O)[C@H]1C(=O)OC` (stereo not given in full): the survivor count is reported as 3 of 6 (dose: 0.1 mg/kg/injection, schedule: Q01DX009 (ip), vehicle: suspension in saline); 4 of 6 (dose: 1.6 mg/kg/injection, schedule: Q01DX009 (ip), vehicle: suspension in saline); 3 of 6 (dose: 6.4 mg/kg/injection, schedule: Q01DX001 (ip), vehicle: saline); 3 of 6 (dose: 12.8 mg/kg/injection, schedule: Q01DX001 (ip), vehicle: saline). In addition, the T/C is 129 % of control (dose: 0.4 mg/kg/injection, schedule: Q05DX005 (ip), vehicle: saline); 125 % of control (dose: 0.4 mg/kg/injection, schedule: Q09DX009 (ip), vehicle: saline); 129 % of control (dose: 0.8 mg/kg/injection, schedule: Q03DX003 (ip), vehicle: saline); 141 % of control (dose: 0.8 mg/kg/injection, schedule: Q05DX005 (ip), vehicle: saline); 136 % of control (dose: 0.8 mg/kg/injection, schedule: Q09DX009 (ip), vehicle: saline); 131 % of control (dose: 1.6 mg/kg/injection, schedule: Q03DX003 (ip), vehicle: saline). Further, the T/C (dose: 3.2 mg/kg/injection, schedule: Q01DX001 (ip), vehicle: saline) is 138 % of control [5 of 6 alive].
Regarding `CCN(CC)C(=S)Oc1ccc(OC(=S)N(CC)CC)cc1`, the survivor count under setting [1] is listed as 6 of 6.
Consider `CN(N=O)C(=O)NCCSc1ncnc2nc[nH]c12`, for which, for the setting “dose: 100.0 mg/kg/injection, schedule: Q01DX Z (ip), vehicle: carboxymethylcellulose (CMC)”, the T/C was 140 % of control.
`COc1cccc(NC(=O)Oc2ccc(Cl)cc2Cl)c1`: under “dose: 400.0 mg/kg/injection, schedule: Q04DX002 (ip), vehicle: Klucel (hydroxypropylcellulose) (HPC)”, the survivor count is 3 of 3.
Consider `CCc1c(CNc2ccc(C(=O)NC(CC(=O)O)C(=O)O)cc2)ccc2nc(N)nc(N)c12` (stereo not given), for which the T/C reads like this: (dose: 0.12 mg/kg/injection, schedule: Q01DX009 (ip), vehicle: saline) 137 and 143 % of control; (dose: 0.5 mg/kg/injection, schedule: Q01DX009 (ip), vehicle: saline) 141 % of control; (dose: 0.8 mg/kg/injection, schedule: Q01DX009 (ip), vehicle: saline) 137 % of control; (dose: 1.0 mg/kg/injection, schedule: Q04DX003 (ip), vehicle: saline) 128 % of control [5 of 6 alive]; (dose: 2.0 mg/kg/injection, schedule: Q04DX003 (ip), vehicle: saline) 148 % of control. In addition, the survivor count by setting is: (dose: 2.0 mg/kg/injection, schedule: Q01DX009 (ip), vehicle: saline) 6 of 6; (dose: 4.0 mg/kg/injection, schedule: Q01DX009 (ip), vehicle: saline) 6 of 6; (dose: 8.0 mg/kg/injection, schedule: Q01DX009 (ip), vehicle: saline) 5 of 6; (dose: 16.0 mg/kg/injection, schedule: Q01DX009 (ip), vehicle: saline) 2 of 6.
Consider `Nc1nc(N)c2cc(NCc3ccc(F)cc3)ccc2n1`, for which the survivor count runs as follows: (dose: 12.5 mg/kg/injection, schedule: Q04DX003 (ip), vehicle: saline with Tween-80) 6 of 6; (dose: 25.0 mg/kg/injection, schedule: Q04DX003 (ip), vehicle: saline with Tween-80) 6 of 6; under setting [1], 3 of 6; (dose: 200.0 mg/kg/injection, schedule: Q04DX003 (ip), vehicle: saline with Tween-80) 0 of 6; (dose: 400.0 mg/kg/injection, schedule: Q04DX003 (ip), vehicle: saline with Tween-80) 0 of 6.
Regarding `CC(C)=CCC(CCN(C)C)(C(N)=O)c1cccc2ccccc12` (stereo not given), the survivor count was 0 of 6 under setting [2], 0 of 6 under setting [3] and 0 of 6 under setting [4].
On to `Cc1ccc(C)c(NC(=O)N2CCN(C)CC2)c1`, for which the survivor count under setting [5] was 3 of 6.
As for `CCOC(=O)NN1C(=O)c2cccc3c([N+](=O)[O-])ccc(c23)C1=O`, the survivor count (dose: 100.0 mg/kg/injection, schedule: Q01DX009 (ip), vehicle: Klucel (hydroxypropylcellulose) (HPC)) is recorded as 4 of 6; the survivor count under setting [6] is 1 of 6; the survivor count under setting [7] is listed as 0 of 6.
For the compound `CN=C(Nc1ccccc1)SC`, the survivor count is 2 of 6 (dose: 200.0 mg/kg/injection, schedule: Q01DX001 (ip), vehicle: saline) and 0 of 6 (dose: 400.0 mg/kg/injection, schedule: Q01DX001 (ip), vehicle: saline).
Regarding `CN(C)C(=S)SSC(=S)N(C)C`, the survivor count under setting [6] is on record as 6 of 6.
As to `CCN(CC)C(=O)C1CN2CCc3cc(OC)c(OC)cc3C2CC1OC(C)=O` (stereo not given), the survivor count is 2 of 4 under setting [3], 3 of 6 under setting [7] and 2 of 4 under setting [4].
Regarding `CCCCCCCCCCCCC(=O)[O][Hg][c]1ccccc1`, the survivor count (dose: 37.5 mg/kg/injection, schedule: Q01DX001 (ip), vehicle: steroid suspending solution) is 1 of 6; the survivor count (dose: 75.0 mg/kg/injection, schedule: Q01DX001 (ip), vehicle: steroid suspending solution) was 1 of 6; the survivor count (dose: 150.0 mg/kg/injection, schedule: Q01DX001 (ip), vehicle: steroid suspending solution) is listed as 0 of 6; the survivor count (dose: 300.0 mg/kg/injection, schedule: Q01DX001 (ip), vehicle: steroid suspending solution) was 0 of 6.
For `CC(=O)OC1CC2CCC1(C)C2(C)C` (stereo not given), the survivor count (dose: 400.0 mg/kg/injection, schedule: Q04DX003 (ip), vehicle: saline) was 0 of 6.
For `Cc1ccc(NC(=O)c2ccc(Cl)cc2)c(C)c1`, under setting [7], the survivor count is recorded as 3 of 6.
On to `c1ccc(P(=NC2CCCCCC2)(c2ccccc2)c2ccccc2)cc1`, for which the survivor count (dose: 400.0 mg/kg/injection, schedule: Q01DX001 (ip), vehicle: acetone) was 3 of 6.
Regarding `CC1(C)CC(=NNC(N)=S)CC(C)(C)N1O`, for the setting “dose: 100.0 mg/kg/injection, schedule: Q04DX002 (ip), vehicle: saline”, the T/C is 129 % of control. In addition, the survivor count (dose: 200.0 mg/kg/injection, schedule: Q04DX002 (ip), vehicle: saline with Tween-80) is 0 of 4.
For `O=C1OC2(Cc3ccccc31)c1ccccc1-c1ccccc12`, the survivor count under setting [2] is listed as 6 of 6.
For `[Cl][Hg][CH2]CC1CC=CCC1` (stereo not given), the survivor count is on record as 4 of 6 (dose: 25.0 mg/kg/injection, schedule: Q04DX003 (ip), vehicle: Klucel (hydroxypropylcellulose) (HPC)); 0 of 6 under setting [2]; 0 of 6 under setting [3]; 0 of 6 under setting [4].
As for `CC(=O)OI(OC(C)=O)c1cccc(C)c1`, the survivor count under setting [7] is given as 1 of 6.
With `CC(=C/C(C)(C)C)/C(C)=C/C(C)(C)C`, the survivor count is listed as 5 of 6 (dose: 200.0 mg/kg/injection, schedule: Q01DX009 (ip), vehicle: saline) and 4 of 6 under setting [5].
Consider `Cc1cccc(Cl)c1N=Nc1sc(N)nc1C`, for which the survivor count (dose: 300.0 mg/kg/injection, schedule: Q01DX001 (ip), vehicle: saline) is given as 0 of 6.
In the case of `CC(C)=CCC/C(C)=C/CO`, the survivor count (dose: 400.0 mg/kg/injection, schedule: Q01DX009 (ip), vehicle: saline with Tween-80) is reported as 0 of 6.
